Reference: article PMC12394565

Amino acid sequences for entries named in this document (tags omitted).
UniProt Q03135: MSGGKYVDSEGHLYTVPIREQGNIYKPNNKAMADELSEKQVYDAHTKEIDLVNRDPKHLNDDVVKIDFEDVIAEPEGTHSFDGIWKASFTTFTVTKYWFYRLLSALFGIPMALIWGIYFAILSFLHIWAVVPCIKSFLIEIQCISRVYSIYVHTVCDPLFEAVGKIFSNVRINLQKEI
UniProt Q99497: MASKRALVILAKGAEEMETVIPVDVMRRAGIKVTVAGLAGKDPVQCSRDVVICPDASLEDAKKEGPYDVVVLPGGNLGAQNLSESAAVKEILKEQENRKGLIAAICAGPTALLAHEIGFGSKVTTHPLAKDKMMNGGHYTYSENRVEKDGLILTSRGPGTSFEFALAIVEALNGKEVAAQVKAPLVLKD

Target: Flag-tagged Caveolin-1 (UniProt Q03135)
Experiment: affinity purification with mass spectrometry; Flag-tagged CAV1 overexpressed in HEK293 cells; proteins that interacted with CAV1 obtained by pulldown; protein profile analysis

For “Parkinson disease 7 (DJ-1) (from UniProt Q99497 1-189)”, which binding is on record?
The binding was “binds”.

These are yes or no findings as the source states them, for the method shown. In cells and extracts the contact can be indirect. These calls come from enrichment with a bait or labelling near it, and not all partners need be listed.
